Experimental findings from US20250332300A1 (priority 2024, published 2025) are described below.

This series can be described thus: general procedure: Fmoc solid-phase peptide synthesis; Fmoc-Rink Amide ProTide resin, Fmoc-Rink Amide AM resin, Fmoc-Sieber resin or Fmoc-Lys(Boc)-Wang resin; DIC/Oxyma Pure; HATU; PyAOP; DIPEA as base. The settings on record: for isolated mass / isolated yield: whole synthesis; for cyclisation yield: cyclisation step; for step yield: late stage modification step; for conjugation yield: conjugation step.

As to “(3S,6S,9S,12S,15S,18S,21S,24S,27S)-9-((1H-indol-3-yl)methyl)-27-acetamido-15-(4-acetamidobutyl)-N-((S)-1-amino-3-(4-fluorophenyl)-1-oxopropan-2-yl)-6-cyclopropyl-24-(4-hydroxybenzyl)-21-(hydroxymethyl)-N,4,16,19-tetramethyl-5,8,11,14,17,20,23,26,31-nonaoxo-12-pentyl-18-phenethyl-1,4,7,10,13,16,19,22,25-nonaazacyclohentriacontane-3-carboxamide”, the isolated mass (TFA salt) was found to be 28.5 mg. In addition, the isolated yield (scale of the general procedure 0.100 mmol, TFA salt) is recorded as 20% yield. For “(3S,6S,9S,12S,15S,18S,21S,24S,27S)-9-((1H-indol-3-yl)methyl)-27-amino-N—((S)-1-amino-3-(4-fluorophenyl)-1-oxopropan-2-yl)-6-cyclopropyl-12-((5-hydroxy-1H-indol-3-yl)methyl)-24-(4-hydroxybenzyl)-15,21-bis(hydroxymethyl)-N,4,16,19-tetramethyl-5,8,11,14,17,20,23,26,30-nonaoxo-18-phenethyl-1,4,7,10,13,16,19,22,25-nonaazacyclotriacontane-3-carboxamide TFA 5 salt”, the cyclisation yield (TFA salt) was determined as 35% yield. As to “2,2′,2″-(10-(2-(((S)-5-((S)-2-((3S,6 S,9S,12S,15S,18S,21S,24S,27S)-9-((1H-indol-3-yl)methyl)-27-acetamido-6-cyclopropyl-12-((5-hydroxy-1H-indol-3-yl)methyl)-15-(4-(2-hydroxyacetamido)butyl)-24-(4-hydroxybenzyl)-21-(hydroxymethyl)-N,4,16,19-tetramethyl-5,8,11,14,17,20,23,26,31-nonaoxo-18-phenethyl-1,4,7,10,13,16,19,22,25-nonaazacyclohentriacontane-3-carboxamido)-3-(4-fluorophenyl)propanamido)-6-amino-6-oxohexyl)amino)-2-oxoethyl)-1,4,7,10-tetraazacyclododecane-1,4,7-triyl)triacetic acid TFA Salt”, for the setting “scale 0.375 mmol, TFA salt”, the isolated mass is on record as 70.1 mg and the isolated yield amounted to 10.3% yield.

With “2-(4-(((S)-5-((S)-2-((3S,6S,9S,12S,15S,18S,21S,24S,27S)-9-((1H-indol-3-yl)methyl)-27-acetamido-15-(4-acetamidobutyl)-12-((5-hydroxy-1H-indol-3-yl)methyl)-24-(4-hydroxybenzyl)-6-((S)-1-hydroxyethyl)-21-(hydroxymethyl)-N,4,16,19-tetramethyl-5,8,11,14,17,20,23,26,30-nonaoxo-18-phenethyl-1,4,7,10,13,16,19,22,25-nonaazacyclotriacontane-3-carboxamido)-3-(4-fluorophenyl)propanamido)-6-(((R)-1,6-diamino-1-oxohexan-2-yl)amino)-6-oxohexyl)carbamoyl)piperazin-1-yl) acetic acid TFA salt”, under “scale 0.375 mmol, TFA salt”, the isolated mass was found to be 32.5 mg and the isolated yield worked out at 4.2% yield. On to “(6S,9S,12S,15S,18S,21S,24S,27S,30S)-12-((1H-indol-3-yl)methyl)-30-acetamido-18-(4-acetamidobutyl)-N—((S)-1-(((S)-1-amino-6-azido-1-oxohexan-2-yl)amino)-3-(4-fluorophenyl)-1-oxopropan-2-yl)-9-cyclopropyl-15-((5-hydroxy-1H-indol-3-yl)methyl)-27-(4-hydroxybenzyl)-24-(hydroxymethyl)-N,7,19,22-tetramethyl-3,8,11,14,17,20,23,26,29-nonaoxo-21-phenethyl-1-oxa-4,7,10,13,16,19,22,25,28-nonaazacyclohentriacontane-6-carboxamide”, for which the step yield (on A49-3, TFA salt) was determined as 28% yield.

For the substance “2,2′-(7-(4-(((S)-5-((S)-2-((3S,6S,9S,12S,15S,18S,21S,24S,27S)-9-((1H-indol-3-yl)methyl)-27-acetamido-15-(4-acetamidobutyl)-6-cyclopropyl-12-((5-hydroxy-1H-indol-3-yl)methyl)-24-(4-hydroxybenzyl)-21-(hydroxymethyl)-N,4,16,19-tetramethyl-5,8,11,14,17,20,23,26,31-nonaoxo-18-phenethyl-1,4,7,10,13,16,19,22,25-nonaazacyclohentriacontane-3-carboxamido)-3-(4-fluorophenyl)propanamido)-6-amino-6-oxohexyl)amino)-1-carboxy-4-oxobutyl)-1,4,7-triazonane-1,4-diyl)diacetic acid”, the conjugation yield (TFA salt) is 93.5% yield. Still for that read-out and setting: with “(3S,6S,9S,12S,15S,18S,21S,24S,27S)-9-((1H-indol-3-yl)methyl)-27-acetamido-15-(4-acetamidobutyl)” the figure was 81% yield; with “(3S,6S,9S,12S,15S,18S,21S,24S,27S)-9-((1H-indol-3-yl)methyl)-15-(4-acetamidobutyl)-N—((S)-1-amino-3-(4-fluorophenyl)-1-oxopropan-2-yl)-27-(1-amino-3,6,9,12,15,18,21,24,27,30-decaoxatritriacontan-33-amido)-6-cyclopropyl-12-((5-hydroxy-1H-indol-3-yl)methyl)-24-(4-hydroxybenzyl)-21-(hydroxymethyl)-N,4,16,19-tetramethyl-5,8,11,14,17,20,23,26,31-nonaoxo-18-phenethyl-1,4,7,10,13,16,19,22,25-nonaazacyclohentriacontane-3-carboxamide TFA salt”, 26% yield.

On to “(3S,6S,9S,12S,15S,18S,21S,24S,27S)-9-((1H-indol-3-yl)methyl)-15-(4-acetamidobutyl)-27-amino-N—((S)-1-amino-3-(4-fluorophenyl)-1-oxopropan-2-yl)-6-cyclopropyl-12-((5-hydroxy-1H-indol-3-yl)methyl)-24-(4-hydroxybenzyl)-21-(hydroxymethyl)-N,4,16,19-tetramethyl-5,8,11,14,17,20,23,26,31-nonaoxo-18-phenethyl-1,4,7,10,13,16,19,22,25-nonaazacyclohentriacontane-3-carboxamide 5 TFA salt”, for which, under “scale 100 μmol, TFA salt”, the isolated mass is reported as 15.4 mg and the isolated yield came to 6.6% yield. Regarding “(3S,6S,9S,12S,15S,18S,21S,24S,27S)-9-((1H-indol-3-yl)methyl)-27-acetamido-15-(4-acetamidobutyl)-6-cyclopropyl-N—((S)-1-(((S)-1,6-diamino-1-oxohexan-2-yl)amino)-3-(4-fluorophenyl)-1-oxopropan-2-yl)-12-((5-hydroxy-1H-indol-3-yl)methyl)-24-(4-hydroxybenzyl)-21-(hydroxymethyl)-N,4,16,19-tetramethyl-5,8,11,14,17,20,23,26,31-nonaoxo-18-phenethyl-1,4,7,10,13,16,19,22,25-nonaazacyclohentriacontane-3-carboxamide TFA salt”, under “on A74, TFA salt”, the step yield is 90% yield. Regarding “(3R,6S,9S,12S,15S,18S,21S,24S,27S)-9-((1H-indol-3-yl)methyl)-27-amino-N—((S)-1-amino-3-(4-fluorophenyl)-1-oxopropan-2-yl)-6-cyclopropyl-12-((5-hydroxy-1H-indol-3-yl)methyl)-24-(4-hydroxybenzyl)-15,21-bis(hydroxymethyl)-N,4,16,19-tetramethyl-5,8,11,14,17,20,23,26-octaoxo-18-phenethyl-1-thia-4,7,10,13,16,19,22,25-octaazacyclohentriacont-29-yne-3-carboxamide TFA salt”, where the note is “TFA salt”, the step yield turned out to be 46% yield. On to “NAc-hE-Y-S-NMehF-MeKAc-W(5OH)-W-cProG-NMeDap-NMeF(4F)—K(N3)-propargyl-Gly-SAR14-K(DOTA)-SAR14-NAc-propargyl-Gly-K(N3)-NMeF(4F)-NMeDap-cProG-W-W(5OH)-MeKAc-NMehF-S—Y-NAc-hE”, for which the conjugation yield (TFA salt) is recorded as 69% yield. With “3-(((3S,6S,9S,12S,15S,18S,21S,24S,27S)-9-((1H-indol-3-yl)methyl)-15-(4-acetamidobutyl)-6-cyclopropyl-3-(((S)-1-(((S)-1,6-diamino-1-oxohexan-2-yl)amino)-3-(4-fluorophenyl)-1-oxopropan-2-yl)(methyl)carbamoyl)-12-((5-hydroxy-1H-indol-3-yl)methyl)-24-(4-hydroxybenzyl)-21-(hydroxymethyl)-4,16,19-trimethyl-5,8,11,14,17,20,23,26,31-nonaoxo-18-phenethyl-1,4,7,10,13,16,19,22,25-nonaazacyclohentriacontan-27-yl)amino)-3-oxopropanoic acid TFA salt”, the step yield (TFA salt) is recorded as 39% yield. Consider “(3S,6S,9S,12S,15S,18S,21S,24S,27S)-9-((1H-indol-3-yl)methyl)-27-acetamido-N—((S)-1-amino-3-(4-fluorophenyl)-1-oxopropan-2-yl)-6-cyclopropyl-12-((5-hydroxy-1H-indol-3-yl)methyl)-15,21-bis(hydroxymethyl)-24-((6-hydroxypyridin-3-yl)methyl)-N,4,16,19-tetramethyl-5,8,11,14,17,20,23,26,30-nonaoxo-18-phenethyl-1,4,7,10,13,16,19,22,25-nonaazacyclotriacontane-3-carboxamide”, for which the cyclisation yield (on A1-1, TFA salt) came out at 19% yield. Consider “2-((1E,3E)-5-((E)-1-(6-(((S)-5-((S)-2-((3S,6S,9S,12S,15S,18S,21S,24S,27S)-9-((1H-indol-3-yl)methyl)-27-acetamido-15-(4-acetamidobutyl)-6-cyclopropyl-12-((5-hydroxy-1H-indol-3-yl)methyl)-24-(4-hydroxybenzyl)-21-(hydroxymethyl)-N,4,16,19-tetramethyl-5,8,11,14,17,20,23,26,31-nonaoxo-18-phenethyl-1,4,7,10,13,16,19,22,25-nonaazacyclohentriacontane-3-carboxamido)-3-(4-fluorophenyl)propanamido)-6-amino-6-oxohexyl)amino)-6-oxohexyl)-3,3-dimethyl-5-sulfonatoindolin-2-ylidene)penta-1,3-dien-1-yl)-1-ethyl-3,3-dimethyl-3H-indol-1-ium-5-sulfonate”, for which the conjugation yield (TFA salt) came out at 66% yield.
